{"source": "PubChem BioAssay AID1053208 (Peter MacCallum Cancer Centre, 2014)", "assay": "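Genes whose silencing cuts survival of bone tumour cells only with doxorubicin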 (primary screen)", "system": "mouse osteosarcoma cells, early-passage culture from an engineered mouse model of fibroblastic bone tumour", "knock-down reagent": "siRNA pool against mouse genes, 40 nM", "duration": "about 120 h (48 h before drug, then 72 h with drug)", "challenge": "doxorubicin 100 nM for 72 h, roughly 30-40% inhibitory dose", "read-out": "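Luminescent ATP signal taken as viability with or without 100 nM doxorubicin for 72 h; mean of two wells set against non-targeting siRNA and turned into robust z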", "scale": "viability z-score with doxorubicin: higher = more viable cells under doxorubicin; viability z-score without drug: higher = more viable cells with knock-down alone", "call rule": "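Called active if knock-down leaves viability unchanged without drug (z within -2 to 2) but lowers it with doxorubicin (z at or under -2)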", "note": "This is a random part of about 17,000 reagents. Of all reagents, 788 (4.7%) were called active. 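Calls rest on z-score classes alone; an extra cut-off of viability at most 70% of control was not applied to them.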 Entries without a mark were called inactive. Not all columns of the deposit are shown."}
{"target": "Siglece (sialic acid binding Ig-like lectin E)", "combined z-score class": "no change with or without drug", "viability z-score with doxorubicin": 1.24, "viability z-score without drug": 0.67}
{"target": "Slc22a19", "combined z-score class": "no change with or without drug", "viability z-score with doxorubicin": -0.9, "viability z-score without drug": 0.17}
{"target": "Prok2 (prokineticin 2)", "combined z-score class": "no change with or without drug", "viability z-score with doxorubicin": -0.45, "viability z-score without drug": 1.69}
{"target": "Snap25 (synaptosomal-associated protein 25)", "combined z-score class": "no change with or without drug", "viability z-score with doxorubicin": 1.57, "viability z-score without drug": 0.51}
{"target": "Loxhd1 (lipoxygenase homology domains 1)", "combined z-score class": "no change with or without drug", "viability z-score with doxorubicin": 0.22, "viability z-score without drug": -0.84}
{"target": "Rabep2 (rabaptin, RAB GTPase binding effector protein 2)", "combined z-score class": "no change with or without drug", "viability z-score with doxorubicin": -0.45, "viability z-score without drug": 1.18}
{"target": "Nek7 (NIMA (never in mitosis gene a)-related expressed kinase 7)", "combined z-score class": "no change with or without drug", "viability z-score with doxorubicin": 0, "viability z-score without drug": 0.34}
{"target": "Plxna4 (plexin A4)", "combined z-score class": "high cell count with doxorubicin only", "viability z-score with doxorubicin": 2.25, "viability z-score without drug": 0.84}
{"target": "Sfpq", "combined z-score class": "no change with or without drug", "viability z-score with doxorubicin": 0.67, "viability z-score without drug": -0.51}
{"target": "Polq (polymerase (DNA directed), theta)", "combined z-score class": "no change with or without drug", "viability z-score with doxorubicin": -0.45, "viability z-score without drug": 1.85}
{"target": "Ttl (tubulin tyrosine ligase)", "combined z-score class": "no change with or without drug", "viability z-score with doxorubicin": -1.24, "viability z-score without drug": -0.84}
{"target": "Zfp772 (zinc finger protein 772)", "combined z-score class": "no change with or without drug", "viability z-score with doxorubicin": 0.11, "viability z-score without drug": 0.84}

2 entries already listed, sorted by “viability z-score with doxorubicin”, highest first:
{"target": "Nek7 (NIMA (never in mitosis gene a)-related expressed kinase 7)", "combined z-score class": "no change with or without drug", "viability z-score with doxorubicin": 0, "viability z-score without drug": 0.34}
{"target": "Rabep2 (rabaptin, RAB GTPase binding effector protein 2)", "combined z-score class": "no change with or without drug", "viability z-score with doxorubicin": -0.45, "viability z-score without drug": 1.18}
